Data: patent US20250281533A1
No constants are given. Whether binding was seen depends on the method and setting. Some entries that bind do so weakly or less than the wild type.

T1: recombinant antigen: human mucin1 conjugated with CD4 (human)
T1 sequence: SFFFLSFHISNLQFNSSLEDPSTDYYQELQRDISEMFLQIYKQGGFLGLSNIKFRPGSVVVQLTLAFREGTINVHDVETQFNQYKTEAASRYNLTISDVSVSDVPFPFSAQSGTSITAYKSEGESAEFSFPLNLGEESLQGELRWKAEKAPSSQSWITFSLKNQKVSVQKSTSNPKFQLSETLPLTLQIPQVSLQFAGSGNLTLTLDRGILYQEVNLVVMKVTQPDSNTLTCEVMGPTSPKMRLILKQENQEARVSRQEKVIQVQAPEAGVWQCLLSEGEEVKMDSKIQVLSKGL

B1: scFv 2447_3B07 (scFv)
scFv: QVQLVESGGVVVQPGGSLRLSCAASGFTFDDYAMHWVRQAPGRGLEWVSLTSWDGGSTYYADSVKGRFTISRDNSKNSLYLQMNSLRAEDTALYYCAKDHSSGWYNGGMDVWGQGTMVTVSSGGGGSGGGGSGGGASSYELTQDPAVSVALGQTVRITCQGDSLRSYYASWYQQKPGQAPVLVIYGKNNRPSGIPDRFSGSSSGNTASLTITGAQAEDEADYYCNSRDSSGNHVVFGGGTKLTVL
B2: scFv 2447_3A09 (scFv)
scFv: EVQLLESGGGLVQPGRSLRLSCAATGFTFDDYAMHWVRQAPGKGLEWVSGISWNSGSIGYADSVKGRFTISRDNAKNSLYLQMNSLRAEDTASYYCAKDVSSGWYWYAFDIWGQGTLVTVSSGGGGSGGGGSGGGASSYELTQDPAVSVALGQTVRITCQGDSLRSYYASWYQQKPGQAPVLVIYGKNNRPSGIPGRFSGSSSGNTASLTVTGAQAEDEADYYCNSRDSGGSVVFGGGTKLTVL
B3: scFv 2447_3H02 (scFv)
scFv: EVQLLESGGGLVQPGRSLRLSCAASGFTFDDYAMHWVRQAPGKGLEWVSGISWDSGSIGYADSVKGRFTISRDNAKNSLYLQMNSLRAEDTALYYCAKDVSSGWYWYAFDIWGQGTLVTVSSGGGGSGGGGSGGGASSYELTQDPAVSVALGQTVRITCQGDILRSYYASWYQQKPGQAPVLVIYGKNNRPSGIPDRFSGSSSGNTASLTITGAQAEDEADYYCNSRDSSGNRVVFGGGTKLTVL
B4: scFv 2447_2H08 (scFv)
scFv: EVQLVQSGAEVKKPGASVKVSCKASGYTFTNYGISWVRQAPGQGLEWMGWISAYNGNTNYAQKLQGRVTMTTDTSTSTAYMELRSLRSDDTAVYYCARDPHILTGYYRGGWFDPWGQGTTVTVSSGGGGSGGGGSGGGASSYELTQDPAVSVALGQTVTITCQGDSLRTSYAGWLQQKPGQAPVLVLYGKTSRPSGIPDRFSGSTSGNTASLTITGAQAEDEAEYFCHSRDSNDNYLEVVFGGGTKLTVL
B5: scFv 2447_3A08 (scFv)
scFv: EVQLVQSGAEVKKPGASVKVSCKASGYTFTSYGISWVRQAPGQGLEWMGWISAYNGNTNYAQKLQGRVTMTTDTSTSTAYMELRSLRSDDTAVYYCARDRATIFGVVTPFDYWGQGTLVTVSSGGGGSGGGGSGGGASSYELTQDPAVSVALGQTVRITCQGDSIRSYSASWYQQKPGQAPRLVIYGKNNRPSGIPDRVSGSTSGNTASLTVTGAQAEDEADYYCNSRDSSGNRVVFGGGTQLTVL
B6: scFv 2447_3C08 (scFv)
scFv: EVQLLESGGGLVQPGGSLRLSCAASGFTFDDYAMHWVRQAPGKGLEWVSGISWNSGSIGYADSVKGRFTISRDNAKNSLYLQMNSLRAEDTALYYCAKDRGSGYEGNYYGMDVWGQGTLVTVSSGGGGSGGGGSGGGASSYELTQDPAVSVALGQTVRITCQGDSLRSYYASWYQQKPGQAPVLVIYGKNNRPSGIPDRFSGTTSGNTASLTITGAQAEDEADYYCNSRDSSGNHYVFGTGTKVTVL
B7: scFv 2447_3H08 (scFv)
scFv: EVQLLESGGGLVQPGRSLRLSCAASGFTFDDYAMHWVRQAPGKGLEWVSGISWNSGSIDYADSVKGRFTISRDNSKNTLYLQMNSLRAEDTAVYYCARDRSSGWYTGSFDYWGQGTLVTVSSGGGGSGGGGSGGGASSYELTQDPAVSVALGQTVRITCQGDSLRSYYASWYRQKPGQAPVLVIYGKNNRPSGIPDRFSGSSSGNTASLTIIGAQAEDEADYYCQSRDSSDNRVLFGGGTKVTVL
B8: scFv 2447_3A12 (scFv)
scFv: EVQLVQSGAEVKKPGASVKVSCKASGYTFTSYGISWVRQAPGQGLEWMGWISAYNGNTNYAQKLRGRVTMTTDTSTSTAYMELRSLRSDDTAVYYCARDPHILTGYYRGGWFDPWGQGTLVTVSSGGGGSGGGGSGGGASSYELTQDPAVSVVLGQTVRITCQGDSLRSYYASWYQQKPGQAPVLVIYGKNNRPSGIPDRFSGSSSGNTASLTITGAQAEDEADYYCNSRDSSGNHRVFGGGTKLTVL

These binders were tested against T1, recombinant antigen: human mucin1 conjugated with CD4 (human) (assay: screening of scFv libraries against the recombinant mucin1-CD4 antigen).

binding	Binder
binds	B1
binds	B2
binds	B3
binds	B4
binds	B5
binds	B6
binds	B7
binds	B8
